Measurements published in PMC4398547.
For at least one entry, the source does not settle the construct or the ends of the probe. Results from cells or extracts need not show a direct contact. For some assays here: No signal at the amounts used counts as a negative. At least one verdict was read from the data and is not stated in words by the source.

By UniProt entry, the sequences of proteins in these tests, tags left out. Where a name states a change or a piece, a line headed by the entry shows the natural chain unless it says otherwise.
UniProt P01871: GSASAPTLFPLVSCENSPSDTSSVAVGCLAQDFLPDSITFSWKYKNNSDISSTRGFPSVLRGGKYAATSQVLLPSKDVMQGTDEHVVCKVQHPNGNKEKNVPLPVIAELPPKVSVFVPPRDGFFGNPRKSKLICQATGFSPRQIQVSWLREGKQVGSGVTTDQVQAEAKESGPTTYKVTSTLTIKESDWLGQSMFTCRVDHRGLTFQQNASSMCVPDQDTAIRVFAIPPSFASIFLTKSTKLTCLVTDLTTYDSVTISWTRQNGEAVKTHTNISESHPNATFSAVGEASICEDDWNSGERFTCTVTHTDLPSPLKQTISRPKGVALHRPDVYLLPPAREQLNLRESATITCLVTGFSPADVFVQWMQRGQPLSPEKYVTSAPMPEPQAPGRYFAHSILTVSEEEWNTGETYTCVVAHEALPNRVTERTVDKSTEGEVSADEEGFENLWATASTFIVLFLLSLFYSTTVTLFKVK

Assays:
[1] = molecular target: membrane-bound immunoglobulin heavy mu chain (mIgM) on Ramos B cells (Homo sapiens) (UniProt P01871); assay: flow cytometry on Ramos cells; details: 200 nM probe, 15 min on ice, PBS with 6.05 mM Mg2+, 1.2 mM Ca2+, 4.5 g/L glucose, 0.2% NaN3, 5 x 10^5 cells, pH not stated, protein on the cell surface, label: 5' Alexa Fluor 488, 3' BHQ-1, folded or branched DNA
[2] = molecular target: membrane-bound immunoglobulin heavy mu chain (mIgM) on Ramos B cells (Homo sapiens) (UniProt P01871); assay: flow cytometry on B cells; details: signal resembles baseline noise; PBS with 6.05 mM Mg2+, 1.2 mM Ca2+, 4.5 g/L glucose, 0.2% NaN3; on ice; 200 nM probe, 5 x 10^5 cells, 15 min; pH not stated; protein on the cell surface; label: 5' FITC; single-stranded DNA

| Sequence | binding result [1] | binding result [2] |
| --- | --- | --- |
| AGGAGGAGATTTTTTTTTTAGGAGGATAGTTAGGTGGCTGTTGAGGGTCTCCTCCTA [Q-TD05] | binds | – |
| TAGCCAAGGTAACCAGTACAAGGTGCTAAACGTAATGGCTTCGGCTTAC [Random aptamer (LD20t)] | – | no binding |
